Laboratory results as given in US20250312452A1 (BRISTAR IMMUNOTECH, published 2025).
Results are given in words; binding and its absence hold for the method and conditions named. Some binding calls cover weakened binding; strength is not graded here. For some assays here: Tags and fused reporters may be left off the sequences shown.

Protein sequences, listed by entry. Tags and fused reporters are not part of them. Lines headed by an entry give the natural chain unless they say otherwise; changes in a name come on top. Chains listed by the source or under a name are the forms on record and can include a tag or linker.
MSLN (Q13421, form named): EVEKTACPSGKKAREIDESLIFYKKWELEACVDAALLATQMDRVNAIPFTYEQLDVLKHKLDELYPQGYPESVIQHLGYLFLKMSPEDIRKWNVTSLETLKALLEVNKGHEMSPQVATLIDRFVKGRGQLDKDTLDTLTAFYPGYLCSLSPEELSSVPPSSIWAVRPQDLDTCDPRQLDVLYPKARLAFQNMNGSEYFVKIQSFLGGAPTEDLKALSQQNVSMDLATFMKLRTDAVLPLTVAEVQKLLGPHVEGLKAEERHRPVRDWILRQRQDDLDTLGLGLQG

T1: Human Claudin18.2 His tag protein (human, UniProt P56856-2 1-261, limits assumed)
T1 construct: also called Claudin18.2 protein; not shown: His tag
T1 sequence (looked up): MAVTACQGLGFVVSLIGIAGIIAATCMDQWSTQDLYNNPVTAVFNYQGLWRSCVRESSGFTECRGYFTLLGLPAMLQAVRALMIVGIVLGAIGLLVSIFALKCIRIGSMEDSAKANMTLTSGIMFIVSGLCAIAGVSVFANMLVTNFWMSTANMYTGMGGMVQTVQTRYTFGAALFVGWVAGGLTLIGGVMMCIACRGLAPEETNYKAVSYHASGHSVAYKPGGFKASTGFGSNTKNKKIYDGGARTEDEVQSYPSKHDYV

B1: NCLD14 (VHH-IgG1 Fc) (Fc fusion)
chain: DVQLQESGGGLVQPGGSLRLSCATSGFTFSTYNMGWFRQAPGKEREFVGSIKWSASTTYYADSVKGRFTISRDNAKNTVYLQMNSLKPEDTAIYYCAGSPHIALGTRTEMYPYWGQGTQVTVSS
notes: Tested as VHH-IgG1 Fc; also called antibody NCLD14; not shown: IgG1 Fc fused to the VHH
B2: NM5 (VHH)
VHH: DVQLQESGGGLVQAGGSLRLSCVGAGVSFSPYGIGWWRQAQGNQREWVASIYRSGSTNYEDFAKDRFTISRDNTKNTAYLQMNSLKPEDTAVYYCQILGTSYRGQGTQVTVSS
notes: also called nanobody NM5; NM5 antibody

Legend:
[1] = target: T1, Human Claudin18.2 His tag protein; test: BLI (Octet), antibody on Protein A biosensor
Protocol: The affinity of Claudin18.2 nanobodies was determined. The affinity of the antibodies was measured using the Fortebio Octet® detection instrument based on the biolayer interferometry (BLI) technique.
After the 5 antibodies were immobilized on the Protein A biosensor, the antibodies could bind to the Human Claudin18.2 His tag protein. The measured affinity was calculated using Data Analysis 11 software of the Octet RED96e (ForteBio). The affinities (KD values) of antibody NCLD04 and antibody NCLD31 for the Claudin18.2 protein are both favorable.

[2] = target: T2, MSLN (UniProt Q13421 296-580, limits assumed); test: membrane protein array chip
T2 construct: also called mesothelin

Row | binding [1] | binding [2] | Binder
1 | binds |  | B1
2 |  | binds | B2
